Source: PubChem BioAssay AID651640 (Broad Institute, 2012)
In all, about 350,000 compounds went through this assay and about 6,000 (1.7%) were called active. Inconclusive results, whose numbers are uncertain, are shown with a selection of clear calls. Cut-off read from the data, not from the text of the source: active = CPE inhibition above about 20% (passing the limit was not always enough); inconclusive = no clear call, values can overlap the other calls; tested in BHK-21 cells.

assay: protection of cells from dengue 2 killing – plate reader, single concentration, primary screen (AID 651640); details: DENV2-infected cells, cytopathic effect rescue, at 9.99 µM, active compounds read high;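 note: 0% = median of neutral control wells and 100% = median of positive control wells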

Row | SMILES | CPE inhibition
1 | Cc1ccc(S(=O)(=O)Nc2ccc3c(c2)C(=O)N([C@@H](C)CO)C[C@@H](C)[C@@H](CN(C)S(=O)(=O)c2cn(C)cn2)OCCCC[C@H](C)O3)cc1 | active: 25.5%
2 | CC(=O)N1[C@@H](CO)[C@H](c2ccccc2)[C@@H]1CN(CC(C)C)C(=O)c1ccccn1 | active: 27%
3 | CCn1cc(C(=O)O)c(=O)c2cc(F)c(N3CCN(C)CC3)cc21 | active: 27.9%
4 | CCc1ccc(NC(=O)C(=O)NCC2CCCN2S(=O)(=O)c2cccs2)cc1 (configuration not stated) | inconclusive: 24.7%
5 | O=C(CSc1nnc(CNC(=O)c2ccccc2)o1)Nc1ccc2c(c1)OCCO2 | inconclusive: 30%
6 | CCOC(=O)c1ccccc1NC(=S)N1CCN(C2CCCCC2)CC1 | inconclusive: 22.2%
7 | C[C@@H]1CCCCO[C@H](CN(C)C(=O)Nc2ccc3c(c2)OCO3)[C@H](C)CN([C@H](C)CO)C(=O)c2cc(N(C)C)ccc2O1 | inactive: 0.5%
8 | O=C(COc1ccccc1)NCC(=O)NC1CCCCC1 | inconclusive: 37.9%
9 | CCC(=O)Nc1ccc2c(c1)C(=O)N(C)C[C@H](OC)[C@@H](C)CN(Cc1cccc(F)c1)[C@H](C)CO2 | inactive: 11.6%
10 | O=C(Cc1ccc(NC(=O)C2CCN(C(=O)C3CCC3)CC2)cc1)Nc1cccc(C(=O)N2CCCC2)c1 | inactive: 7.99%
11 | COc1cccc(CN(CC2CCCO2)S(=O)(=O)c2ccc(-n3cnnn3)c(OC)c2)c1 (configuration not stated) | inconclusive: 22%
12 | O=C(c1cnn2c(C(F)F)cc(-c3ccccc3)nc12)N1CCc2ccccc21 | inactive: 3.79%
13 | CC12C=CC(=O)C=C1CCC1C3CCC(O)(C(=O)CO)C3(C)CC(O)C12F (configuration not stated) | inconclusive: 36%
14 | COc1ccc(CCN=C(N)NS(=O)(=O)c2ccccc2)cc1 | inconclusive: 31.6%
15 | CN(C)CC(=O)N[C@H]1CC[C@H](CCn2cc(C3CCCCC3)nn2)O[C@H]1CO | active: 40.9%
16 | CC(C)(C)OC(=O)C[C@@H]1C/C=C\C[C@H](CC(=O)N(CCO)Cc2ccccc2)C(=O)NC[C@@H](c2ccccc2)OC1=O | inconclusive: 32.3%
17 | O=C1O[C@@H](c2ccccc2)C[C@@H](O)[C@H](O)CCCCc2ccccc21 | inconclusive: 84.5%
18 | O=C(Cn1cnc2c(NCc3ccccc3)ncnc21)NCC1CCCO1 (configuration not stated) | active: 74.6%
19 | CC1CCc2sc(C(=O)NC3CCN(Cc4ccccc4)CC3)cc2C1 (configuration not stated) | inconclusive: 44.2%
20 | CC1Cc2c([nH]c3ccccc23)C(=O)N1 (configuration not stated) | inconclusive: 39.8%
21 | O=C(C[C@@H]1C=C[C@H](NS(=O)(=O)c2ccc(F)cc2)[C@@H](CO)O1)NCc1ccncn1 | inactive: -10.2%
22 | COc1ccc(CC(N)c2csc(NC(=O)c3cccs3)n2)cc1 (configuration not stated) | inconclusive: 23.2%
23 | COc1ccc(OC)c(NC(=O)N[C@H](Cc2ccccc2)C(=O)NN)c1 | inactive: -9.79%
24 | C[C@H](CO)N1C[C@H](C)[C@H](CN(C)Cc2ccccc2)Oc2ncc(Br)cc2C1=O | inconclusive: 22.2%

Single values from the entries so far.
Value of `CC1Cc2c([nH]c3ccccc23)C(=O)N1` (configuration not stated) under CPE inhibition: inconclusive: 39.8%
Value of `COc1ccc(CCN=C(N)NS(=O)(=O)c2ccccc2)cc1` under CPE inhibition: inconclusive: 31.6%
Value of `O=C1O[C@@H](c2ccccc2)C[C@@H](O)[C@H](O)CCCCc2ccccc21` under CPE inhibition: inconclusive: 84.5%

Further compounds

Row | SMILES | CPE inhibition
25 | CCCCN(C(=O)c1cc(Cl)nc2ccccc12)c1c(N)n(CCCC)c(=O)[nH]c1=O | inconclusive: 20.5%
26 | CC1(C(=O)NS(=O)(=O)c2ccc(Cl)s2)CCN1C(=O)C1(c2ccc(Cl)cc2)CC1 (configuration not stated) | inconclusive: 28%
27 | O=C(C[C@H]1C[C@@H]2c3cc(NC(=O)Nc4ccccc4F)ccc3O[C@@H]2[C@@H](CO)O1)NCc1ccc(Oc2ccccc2)cc1 | inactive: -8.3%
28 | COc1ccc2nc(SCC(=O)NC3CCCCC3C)[nH]c2c1 (configuration not stated) | inconclusive: 58.1%
29 | COc1ccc(-c2cc(C(=O)NCc3ccc(C(F)(F)F)cc3)[nH]n2)c(C)c1 | inactive: -8.45%
30 | CCC(=O)N(C)C[C@@H]1Oc2cc(-c3ccc(OC)cc3)ccc2S(=O)(=O)N([C@H](C)CO)C[C@H]1C | inactive: -11.4%
31 | CCNC(=O)[C@@H]1[C@@H](CO)[C@@H]2Cn3c(ccc(-c4ccc(F)cc4)c3=O)[C@@H]2N1Cc1cc(F)ccc1F | inactive: -3.07%
32 | C/C=C/C(=O)Nc1ccc(N2CCN(c3ccc(C(F)(F)F)cn3)CC2)nc1 | inconclusive: 46%
33 | CO[C@@H]1CN(C)C(=O)c2cc(NS(=O)(=O)c3ccc(Cl)cc3)ccc2OC[C@H](C)NC[C@@H]1C | inactive: -4.08%
34 | Cc1ccc(NC2CCCN(C(=O)C3CCCCC3)C2)cc1C (configuration not stated) | inconclusive: 90.5%
35 | Cc1ccc(S(=O)(=O)N2CCN(C)CC2c2ccccc2)cc1 (configuration not stated) | inconclusive: 65.7%
36 | COc1ccccc1OCC(=O)Nc1ccc(N2CCOCC2)cc1N1CCOCC1 | active: 29.1%
37 | C[C@@H]1O[C@@H]1P(=O)(O)O | inconclusive: 45.3%
38 | CCCNC(=O)Nc1ccc2c(c1)OC[C@H](C)N(Cc1cccnc1)C[C@@H](C)[C@H](OC)CN(C)C2=O | inconclusive: 31.2%
39 | C[C@@H]1CN([C@@H](C)CO)C(=O)c2cc(NC(=O)NC3CCCCC3)ccc2O[C@@H](C)CCCCO[C@@H]1CN(C)CC1CCCCC1 | inconclusive: 33.6%
40 | CC(C)CN(C(=O)COC(=O)CCC(=O)c1ccc(Cl)cc1)c1c(N)n(Cc2ccccc2)c(=O)[nH]c1=O | inconclusive: 42.3%
41 | COc1cc(NS(=O)(=O)c2ccc3c(c2)C(C)(C)C(=O)N3C)cc(OC)c1 | inactive: 11.4%
42 | O=C(Nc1ccc(F)cc1)N1C[C@@H]2[C@H](c3ccccc31)[C@@H](CO)N2Cc1ccccc1Cl | inconclusive: 65.8%
43 | Cc1noc(C)c1NC(=O)Nc1ccc2c(c1)C(=O)N([C@@H](C)CO)C[C@H](C)[C@H](CN(C)S(C)(=O)=O)O2 | inconclusive: 28.7%
44 | CCc1cc(C(=O)NCC(C)(C)N2CCOCC2)sc1C | inconclusive: 71.4%
45 | CN1CCN(C(=O)C[C@@H]2CC[C@@H]3[C@H](COC[C@@H](O)CN3Cc3ccc4c(c3)OCO4)O2)CC1 | active: 99.8%
46 | C[C@@H]1CN([C@@H](C)CO)C(=O)c2c(c3ccccc3n2C)-c2ccccc2CO[C@H]1CN(C)S(=O)(=O)c1ccc([N+](=O)[O-])cc1 | inconclusive: 35%
47 | CSC(SC)=C(C#N)C(=O)c1ccccc1 | inconclusive: 32.7%
